# The other results are listed elsewhere or left out. The calls rarely recur for the same compound in another form.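 Kinases were expressed as nanoluciferase fusions in K562 cells and luminescence was read every 4 h between 2 and 18 h as percent of control, DMSO set to 100% and a positive control to 0%. A time point counts as decreased when the signal drops significantly (2 sigma). The hit call is the authors' own, does not follow from the count of time points alone, and its rule is not shown.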
# Protein sequences, listed by entry. Tags and fused reporters are not part of them.
# UniProt P09619, whole entry: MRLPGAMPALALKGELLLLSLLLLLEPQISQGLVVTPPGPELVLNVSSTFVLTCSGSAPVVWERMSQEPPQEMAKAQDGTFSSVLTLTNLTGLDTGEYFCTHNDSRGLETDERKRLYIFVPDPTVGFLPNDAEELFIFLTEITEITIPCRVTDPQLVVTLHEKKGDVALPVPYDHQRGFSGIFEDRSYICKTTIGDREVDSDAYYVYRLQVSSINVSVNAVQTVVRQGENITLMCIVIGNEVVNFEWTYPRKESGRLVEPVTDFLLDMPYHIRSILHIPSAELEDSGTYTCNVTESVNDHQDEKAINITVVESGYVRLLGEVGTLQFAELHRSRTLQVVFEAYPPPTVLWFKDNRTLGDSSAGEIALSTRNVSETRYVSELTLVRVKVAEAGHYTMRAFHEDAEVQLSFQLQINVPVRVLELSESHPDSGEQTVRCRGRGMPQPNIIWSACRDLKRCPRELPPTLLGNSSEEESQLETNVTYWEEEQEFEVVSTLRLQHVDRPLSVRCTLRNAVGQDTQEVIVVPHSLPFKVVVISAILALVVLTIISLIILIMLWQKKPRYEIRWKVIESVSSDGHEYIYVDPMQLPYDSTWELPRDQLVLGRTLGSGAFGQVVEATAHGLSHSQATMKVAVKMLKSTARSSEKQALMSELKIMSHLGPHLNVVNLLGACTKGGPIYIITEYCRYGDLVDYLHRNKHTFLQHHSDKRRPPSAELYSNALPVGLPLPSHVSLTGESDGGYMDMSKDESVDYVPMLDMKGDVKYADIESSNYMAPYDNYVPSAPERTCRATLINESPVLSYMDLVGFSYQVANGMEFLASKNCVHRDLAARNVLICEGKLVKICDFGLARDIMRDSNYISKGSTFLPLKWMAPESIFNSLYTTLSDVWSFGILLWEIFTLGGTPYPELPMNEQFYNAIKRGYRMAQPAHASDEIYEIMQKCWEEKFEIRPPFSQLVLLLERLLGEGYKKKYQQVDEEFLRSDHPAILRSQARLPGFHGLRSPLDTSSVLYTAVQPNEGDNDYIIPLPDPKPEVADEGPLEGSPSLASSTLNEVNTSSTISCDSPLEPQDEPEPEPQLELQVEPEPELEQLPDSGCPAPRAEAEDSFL
# UniProt Q15118, whole entry, looked up: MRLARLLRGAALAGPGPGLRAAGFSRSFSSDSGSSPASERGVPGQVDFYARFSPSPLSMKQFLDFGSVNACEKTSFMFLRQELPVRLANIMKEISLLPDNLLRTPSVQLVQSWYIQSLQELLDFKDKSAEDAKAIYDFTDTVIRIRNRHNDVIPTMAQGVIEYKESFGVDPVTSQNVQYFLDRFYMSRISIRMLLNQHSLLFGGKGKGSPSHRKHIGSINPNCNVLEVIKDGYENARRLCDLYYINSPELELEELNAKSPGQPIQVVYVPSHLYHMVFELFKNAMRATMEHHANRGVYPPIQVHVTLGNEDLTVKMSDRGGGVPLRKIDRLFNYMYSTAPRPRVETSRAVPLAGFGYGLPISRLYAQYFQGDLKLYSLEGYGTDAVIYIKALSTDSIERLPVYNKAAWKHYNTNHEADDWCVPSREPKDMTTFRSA
# Biological target: PDGFRB (UniProt P09619)
# Assay: number of time points (of 5) at which kinase-Nluc abundance scored as decreased, DMSO-normalised (count); higher = more persistent destabilization
# Settings: K562; 2-18 h
row,Compound,number of time points
1,CN1CCC(CNc2ccc3ncc(-c4cccc(OC(F)(F)F)c4)n3n2)CC1 (2.5 µM),0
2,Cc1cc(C(=O)NC(C)(C)C)cc(C#Cc2ccc3c4c(oc3c2)C(C)(C)c2cc(NS(C)(=O)=O)ccc2C4=O)n1 (10 µM),0
3,CC(O)(C#Cc1ccc2c(c1)N(c1nc(N)ncc1Cl)CC2)c1nccs1 (stereo not drawn) (2.5 µM),0
4,COc1cc(-c2cc(-c3ccc(N4CCNCC4)cc3)cnc2C)cc(OC)c1OC (10 µM),0
5,Cn1c(CNc2cccc(C(=O)NCc3ccccc3C(F)(F)F)c2)nnc1-c1ccncc1 (10 µM),2

# Biological target: PDK1 (UniProt Q15118)
# Assay: as above
# Settings: K562; 2-18 h
row,Compound,number of time points
1,O=Nc1c(-c2c(O)[nH]c3cc(Br)ccc23)[nH]c2ccccc12 [GSK 3 Inhibitor IX] (2.5 µM),0
2,Cn1c2cc([S+](C)[O-])sc2c2cnn(Cc3cccc(N)c3)c(=O)c21 (stereo not drawn) (2.5 µM),0
3,Cc1cc(-n2c(=O)ccc3c[nH]c4nccc-4c32)ccc1F (10 µM),0
4,CCCn1/c(=N/C(=O)c2cccc(C(N)=O)c2)[nH]c2ccccc21 [Takinib] (10 µM),0
5,CO[C@H]1C[C@@H]2CC[C@@H](C)[C@@](O)(O2)C(=O)C(=O)N2CCCC[C@H]2C(=O)O[C@H]([C@H](C)C[C@@H]2CC[C@@H](OCCO)[C@H](OC)C2)CC(=O)[C@H](C)/C=C(\C)[C@@H](O)[C@@H](OC)C(=O)[C@H](C)C[C@H](C)/C=C/C=C/C=C/1C [Everolimus] (10 µM),0
6,Cc1cccc(-c2[nH]ncc2-c2ccnc3ccccc23)n1 (10 µM),0
7,CC1(N)CCN(c2cccnc2NC(=O)c2nc(-c3ncccc3C(F)(F)F)cnc2N)CC1 [Darovasertib] (10 µM),0
8,COc1cc2c(cc1Nc1ncc(C(N)=O)c(Nc3c(F)cccc3C(F)(F)F)n1)CN(C)CC2 (2.5 µM),0
9,COc1cc2ncnc(Nc3ccc(O)c(Br)c3)c2cc1OC (10 µM),0
10,Nc1nc2c(nc(Br)n2[C@@H]2O[C@@H]3COP(=O)(O)O[C@H]3[C@H]2O)c(=O)[nH]1 [8-Bromo-cGMP (sodium)] (10 µM),0
11,O=c1c2c([nH]n1-c1nc3ccccc3s1)CCCC2 (10 µM),0
12,COC(=O)Nc1ccc(-c2nc(N3CCOCC3)c3cnn(C4CCN(Cc5cccnc5)CC4)c3n2)cc1 (10 µM),0
13,N[C@@H]1CCCN(c2c(/C=C3\SC(=O)NC3=O)cccc2-c2ccccc2)C1 (10 µM),0
14,Nc1nc(N)c2nc(-c3cccc(O)c3)c(-c3cccc(O)c3)nc2n1 (10 µM),0
15,Cn1ncc(NC(=O)c2nc(-c3c(F)cccc3F)sc2N)c1N1CC[C@@H](N)[C@H](F)CC1 (10 µM),0
16,C=C1C(=O)[C@@]23[C@H](O)C[C@@H]4C(C)(C)C(=O)CC[C@@]4(C)[C@@H]2CC[C@@H]1[C@H]3O [Glaucocalyxin A] (2.5 µM),0
17,O=C(NCCO)c1cc(C(=O)NCCO)cc(C(=O)NCCO)c1 (10 µM),0
18,CCC(=O)Nc1cccc(Oc2nc(Nc3ccc(N4CCN(C)CC4)cc3OC)ncc2Cl)c1 (10 µM),0
19,Cc1nn(C)cc1-c1nc2c(N3CCN(Cc4ccc(Cl)cc4)CC3)c(Cl)cnc2[nH]1 (10 µM),0
20,CC(C)Oc1ccc(F)c(-c2cnc(N)c(C(=O)Nc3cnccc3N3CCC[C@@H](C(=O)O)C3)n2)c1 (2 µM),0
21,Nc1ncc(C(=O)NC2CN(C(=O)C3CC3)C2)c2ccc(-c3cccc(F)c3)nc12 (2 µM),0
22,O=C(ON=C1c2ccccc2-c2nc3ccccc3nc21)c1ccco1 (2.5 µM),0
23,CC(C)=CC[C@@H](O)C1=CC(=O)c2c(O)ccc(O)c2C1=O [Shikonin] (10 µM),0
24,COC(=O)Nc1ccc(-c2nc(N3CCOCC3)c3cnn(C4CCN(C(=O)OC)CC4)c3n2)cc1 (10 µM),0
25,CNC(=O)c1ccc2c(c1)ncn2-c1ccc(CC(=O)OC(C)(C)C)cc1 (10 µM),0
26,O=C1CC[C@H](NC(=O)Cc2ccccc2)C(=O)N1 [Antineoplaston A10] (10 µM),0
27,COCCOCCc1c(C)c2cc(OC)c(O)c(C=O)c2oc1=O (10 µM),0
28,Cc1ccc(C(=O)NC2CC2)cc1-n1ncc(C(=O)c2cccc(C#N)c2)c1N [Acumapimod] (10 µM),0

# 3 entries out of the list, sorted by count of non-hydrogen atoms, ascending:
row,Compound,number of time points
6,Cc1cccc(-c2[nH]ncc2-c2ccnc3ccccc23)n1 (10 µM),0
10,Nc1nc2c(nc(Br)n2[C@@H]2O[C@@H]3COP(=O)(O)O[C@H]3[C@H]2O)c(=O)[nH]1 [8-Bromo-cGMP (sodium)] (10 µM),0
22,O=C(ON=C1c2ccccc2-c2nc3ccccc3nc21)c1ccco1 (2.5 µM),0

# — the supplement of paper PMC12823440, “Inhibitors supercharge kinase turnover through native proteolytic circuits” (Nature, 2025)
